PubChem BioAssay AID1487 (National Center for Advancing Translational Sciences (NCATS), 2009)
This is one part of the list. These are further read-outs of the screen, such as a control signal, another cell line or another target. No call is given for them. Most of these compounds were active or inconclusive in the main read-out, so they are no random draw. Potencies come from curve fits of mixed quality, noted in brackets.

Test: qHTS Assay for Modulators of Lamin A Splicing
Settings: HeLa LMNA splicing GFP/RFP minigene ratio, 48 h
Procedure, shortened: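 S3 HeLa stable clones carrying a lamin A-EGFP splicing minigene plus DsRed2 were seeded at 600 cells/well in Opti-MEM with 2% FBS, pin-dosed and incubated 48 h at 37°C. Acumen cytometry (488 nm) gave the GFP/RFP total-intensity ratio.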

[1] = measured here: GFP splicing reporter channel
[2] = measured here: RFP viability control channel

CC(=O)Nc1ccc(OC[C@@H](O)CNC(C)C)cc1
AC50 [1]: 0.000891 µM [falling, full curve, poor fit] | AC50 [2]: 0.000891 µM [falling, full curve, poor fit]

CCOC(=O)c1c(C)c(C(=O)Nc2cc(OC)ccc2OC)c(C)n1CC
AC50 [2]: 35.5 µM [rising, single point]

Cc1nc(COC(=O)c2cc(O)c3ccccc3c2O)cs1
AC50 [1]: 0.316 µM [falling, full curve, poor fit]

Cc1ccc(NC(=S)NCCC(c2ccccc2)c2ccccc2)c(C)c1
AC50 [2]: 31.6 µM [rising, single point]

C=C(C)CNC(=S)NNC(=O)CCn1c2ccccc2c2ccccc21
AC50 [1]: 17.8 µM [rising, partial curve] | AC50 [2]: 35.5 µM [rising, single point]

C=CCc1ccc(OCC(O)COc2ccc(CC=C)cc2OC)c(OC)c1
AC50 [1]: 20 µM [falling, partial curve, poor fit] | AC50 [2]: 20 µM [falling, partial curve, poor fit]

CCCCN(C(=O)Nc1ccc(Cl)cc1)C1CCN(C(C)=O)CC1
AC50 [2]: 0.0282 µM [falling, full curve]

CC(=O)Nc1ccccc1OCC(=O)NC(C)c1ccccc1 (centres undefined)
AC50 [2]: 7.94 µM [rising, partial curve, poor fit]

O=C(CN1CC(=O)Oc2ccccc21)OCC(=O)c1ccc(F)cc1
AC50 [2]: 0.0794 µM [rising, full curve]

Cc1ccc2onc(CC(=O)N3CCN(c4ccc(Cl)cc4)CC3)c2c1
AC50 [2]: 17.8 µM [rising, single point]

COc1ccc(-c2[nH]ncc2CN(C)C(C)c2ccon2)c(OC)c1 (centres undefined)
AC50 [2]: 0.0447 µM [falling, full curve, poor fit]

O=C(O)c1ccc(N/N=C/C=C/c2ccccc2[N+](=O)[O-])cc1
AC50 [2]: 8.91 µM [falling, partial curve]

CCOc1ccc(N2C(=O)CC(Sc3nnnn3-c3ccccc3)C2=O)cc1 (centres undefined)
AC50 [2]: 22.4 µM [falling, single point]

CCN1C(=O)C=CC1=O
AC50 [1]: 5.01 µM [falling, full curve, poor fit] | AC50 [2]: 6.31 µM [falling, single point]

CC(=O)CCc1oc2ccc(C)cc2c1-c1ccc(C)o1
AC50 [1]: 12.6 µM [falling, partial curve, poor fit]

CC(=O)CC(=O)[C@@]1(O)CC[C@@H]2[C@@H]3C=C(C)C4=CC(=O)CC[C@@H]4[C@H]3CC[C@]21C
AC50 [1]: 1.12 µM [falling, single point] | AC50 [2]: 2.24 µM [falling, single point]

CC(C)COc1ccc(-c2nnc(-c3ccncc3)o2)cc1
AC50 [2]: 11.2 µM [rising, single point]

O=c1[nH]c(-c2ccc3c(c2)OCO3)nc2c1sc(=S)n2-c1ccccc1
AC50 [2]: 0.0355 µM [falling, full curve, poor fit]

O=C(COC(=O)c1ccccc1Br)Nc1cc(S(=O)(=O)N2CCOCC2)ccc1N1CCCC1
AC50 [1]: 0.0501 µM [falling, full curve, poor fit]

C=C(C)COc1ccc(-c2nc(N)ncc2Oc2ccc(OC)cc2)c(O)c1
AC50 [1]: 35.5 µM [falling, single point] | AC50 [2]: 35.5 µM [falling, partial curve]

COc1cc(SC)ccc1C(=O)N1CCN(c2ccccc2OC)CC1
AC50 [1]: 5.01 µM [falling, full curve, poor fit]

CC(C)Cn1c(=O)c(C(=O)Nc2ccccc2S(N)(=O)=O)c(O)c2ccccc21
AC50 [2]: 17.8 µM [rising, single point]

Cc1ccc(C(=O)NC2CCN(CC(=O)NCc3cccs3)CC2)cc1
AC50 [2]: 0.00447 µM [falling, full curve]

Cc1ccc(S(=O)(=O)N2CCCC(c3nc(-c4ccc(C)o4)no3)C2)cc1 (centres undefined)
AC50 [2]: 31.6 µM [rising, single point]

Cc1cc(C)c(C#N)c(SCC2COc3ccccc3O2)n1 (centres undefined)
AC50 [1]: 12.6 µM [rising, partial curve] | AC50 [2]: 12.6 µM [rising, partial curve]

CCOc1ccc(NC(=O)C2CCCN(c3nn4cc(-c5ccc(OC)cc5)nc4s3)C2)cc1 (centres undefined)
AC50 [2]: 0.02 µM [rising, full curve, poor fit]

Cc1c(C(=O)Nc2ccc3oc(-c4cccnc4)nc3c2)oc2ccccc12
AC50 [2]: 15.8 µM [falling, single point]

Cc1cc2nc(SCC(=O)Nc3ccccc3C(=O)O)[nH]c2cc1C
AC50 [2]: 0.158 µM [rising, full curve]

Cc1ncoc1C(=O)N1CCCC(C(=O)c2ccc(-c3ccccc3)c(F)c2)C1 (centres undefined)
AC50 [2]: 4.47 µM [falling, full curve, poor fit]

CN1CCN(C(=O)c2ccc(CSc3ccc(Cl)cc3)cc2)CC1
AC50 [2]: 35.5 µM [rising, single point]

CCCCCCN(C(=O)CCCCCN1C(=O)NC(c2ccc(-c3ccccc3)cc2)C(C(=O)OCc2ccccc2)=C1C)C(C(=O)NCCCC)c1ccc(OCC(=O)OC)cc1 (centres undefined)
AC50 [2]: 0.126 µM [rising, partial curve, poor fit]

CCn1ncc(/C=N\NC(=O)c2cc(-c3ccc(C)cc3C)nc3ccccc23)c1C
AC50 [2]: 25.1 µM [rising, single point]

Cn1c(CN2CCOCC2)nc2cc(NC(=O)c3ccc(Cl)cc3)ccc21
AC50 [2]: 2.51 µM [rising, full curve]

CCN(CC)S(=O)(=O)c1cc(NS(=O)(=O)c2c(Cl)cccc2Cl)ccc1C
AC50 [2]: 35.5 µM [rising, single point]

O=C(NCC1(c2ccccc2)CCCC1)c1ccco1
AC50 [2]: 11.2 µM [falling, partial curve, poor fit]

O=C(NNc1cc(N2CCCC2)nc(N2CCCC2)n1)c1ccc([N+](=O)[O-])cc1
AC50 [2]: 0.0282 µM [falling, full curve, poor fit]

O=C(Nc1nnc(-c2cccs2)o1)c1cc(-c2ccccc2)nc2ccccc12
AC50 [2]: 4.47 µM [rising, full curve]

COc1ccccc1NC(=O)C(C)Sc1nnnn1C (centres undefined)
AC50 [1]: 0.891 µM [rising, full curve, poor fit]

Cc1nonc1CN(C)C(=O)CC1C(=O)NCCN1Cc1cccc(C(F)(F)F)c1 (centres undefined)
AC50 [1]: 0.0224 µM [rising, full curve, poor fit]

Fc1ccccc1N1CCN(c2ncnc3c2nc2n3CCCCC2)CC1
AC50 [1]: 12.6 µM [falling, partial curve, poor fit]

N#Cc1c(NCCCO)nc(-c2ccccc2)c2c1CCCC2
AC50 [2]: 20 µM [rising, partial curve, poor fit]

CC1=C(C(=O)OC2CCCCCC2)C(c2ccc(C)o2)C2=C(CCCC2=O)N1 (centres undefined)
AC50 [2]: 35.5 µM [rising, single point]

O=C(NNC(=O)c1cc(-c2ccccc2)nn1-c1ccccc1)c1ccccc1
AC50 [2]: 15.8 µM [rising, single point]

COC(=O)N/N=C/c1cc(C)n(-c2cccc3ccccc23)c1C
AC50 [1]: 11.2 µM [rising, single point]

Cc1ccc(CNC(=O)CCS(=O)(=O)c2cc3c(cc2Cl)NC(=O)CO3)cc1
AC50 [1]: 11.2 µM [falling, single point]

CCOC(=O)c1[nH]c(C)c(/C(O)=C2\C(=O)C(=O)N(CCN(C)C)C2c2ccc(C)o2)c1C (centres undefined)
AC50 [2]: 12.6 µM [rising, partial curve, poor fit]

CC(CCc1ccccc1)NC(=O)c1nnc(Cc2ccc(F)cc2)o1 (centres undefined)
AC50 [1]: 0.158 µM [falling, full curve, poor fit]

COCC(C)NC(=O)c1oc2c(c1C)C1(CCC2)SCCS1 (centres undefined)
AC50 [1]: 20 µM [rising, single point] | AC50 [2]: 17.8 µM [rising, partial curve, poor fit]

O=C(CCc1nnc(-c2ccc3c(c2)OCO3)o1)N1CCC(c2ccc(F)cc2)C1 (centres undefined)
AC50 [1]: 17.8 µM [rising, partial curve, poor fit]

O=C(NCc1ccc(F)cc1)c1cc(Sc2ccc(F)cc2F)nc2ccccc12
AC50 [1]: 0.0501 µM [falling, full curve, poor fit]

Cc1nn(C(=O)c2ccccc2)c(C)c1S(=O)(=O)N1CCOCC1
AC50 [1]: 0.00891 µM [falling, full curve, poor fit]

CCOC(=O)c1cc(S(=O)(=O)NC2CCN(C(=O)OCC)CC2)cn1C
AC50 [2]: 20 µM [rising, single point]

O=S(=O)(NCc1ccccc1Cl)c1ccc(-c2cnc(C3CC3)o2)cc1
AC50 [2]: 3.98 µM [rising, single point]

CCOc1ccc(S(=O)(=O)N2CCN(C(=S)NCc3ccco3)CC2)cc1
AC50 [1]: 15.8 µM [rising, single point] | AC50 [2]: 12.6 µM [rising, partial curve]

Cc1nc2ccc(NC(=O)c3cccs3)cc2c(=O)n1Cc1ccc(Cl)cc1
AC50 [2]: 0.447 µM [rising, full curve]

CNC(=S)N(C)c1ccccc1
AC50 [1]: 0.0355 µM [falling, full curve, poor fit] | AC50 [2]: 0.0501 µM [falling, full curve]

O=C(Nc1ccc(-c2nc3ccccc3[nH]2)cc1)c1ccc(N2C(=O)CCC2=O)cc1
AC50 [1]: 5.62 µM [rising, single point]

O=C(Nc1ccccc1)c1cccc(S(=O)(=O)Oc2ccc([N+](=O)[O-])cc2)c1
AC50 [1]: 11.2 µM [rising, partial curve] | AC50 [2]: 14.1 µM [rising, partial curve]
